Laboratory results: article PMC11406046
Results are given in words; binding and its absence hold for the method and conditions named. Binding seen in cells or lysates may run through a third protein. Some entries that bind do so weakly or less than the wild type.

By UniProt entry, the sequences of proteins in these tests, tags left out.
UniProt Q15327: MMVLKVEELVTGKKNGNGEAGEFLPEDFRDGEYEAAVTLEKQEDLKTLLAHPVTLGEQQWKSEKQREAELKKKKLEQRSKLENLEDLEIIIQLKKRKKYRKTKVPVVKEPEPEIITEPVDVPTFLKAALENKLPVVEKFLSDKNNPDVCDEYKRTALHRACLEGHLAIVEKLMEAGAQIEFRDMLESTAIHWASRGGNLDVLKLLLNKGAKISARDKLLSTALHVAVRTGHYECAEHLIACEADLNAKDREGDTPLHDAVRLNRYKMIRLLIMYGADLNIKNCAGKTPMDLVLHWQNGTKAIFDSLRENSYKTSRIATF
UniProt Q9CR42: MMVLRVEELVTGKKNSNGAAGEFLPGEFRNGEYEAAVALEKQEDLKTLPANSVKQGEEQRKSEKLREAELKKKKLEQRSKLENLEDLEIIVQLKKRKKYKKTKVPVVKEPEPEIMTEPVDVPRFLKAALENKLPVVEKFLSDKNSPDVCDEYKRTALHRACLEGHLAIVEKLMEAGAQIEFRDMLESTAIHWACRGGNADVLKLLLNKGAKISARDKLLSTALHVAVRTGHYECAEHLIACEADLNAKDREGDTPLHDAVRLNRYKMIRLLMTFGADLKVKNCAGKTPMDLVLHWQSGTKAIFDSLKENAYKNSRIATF
UniProt Q61510: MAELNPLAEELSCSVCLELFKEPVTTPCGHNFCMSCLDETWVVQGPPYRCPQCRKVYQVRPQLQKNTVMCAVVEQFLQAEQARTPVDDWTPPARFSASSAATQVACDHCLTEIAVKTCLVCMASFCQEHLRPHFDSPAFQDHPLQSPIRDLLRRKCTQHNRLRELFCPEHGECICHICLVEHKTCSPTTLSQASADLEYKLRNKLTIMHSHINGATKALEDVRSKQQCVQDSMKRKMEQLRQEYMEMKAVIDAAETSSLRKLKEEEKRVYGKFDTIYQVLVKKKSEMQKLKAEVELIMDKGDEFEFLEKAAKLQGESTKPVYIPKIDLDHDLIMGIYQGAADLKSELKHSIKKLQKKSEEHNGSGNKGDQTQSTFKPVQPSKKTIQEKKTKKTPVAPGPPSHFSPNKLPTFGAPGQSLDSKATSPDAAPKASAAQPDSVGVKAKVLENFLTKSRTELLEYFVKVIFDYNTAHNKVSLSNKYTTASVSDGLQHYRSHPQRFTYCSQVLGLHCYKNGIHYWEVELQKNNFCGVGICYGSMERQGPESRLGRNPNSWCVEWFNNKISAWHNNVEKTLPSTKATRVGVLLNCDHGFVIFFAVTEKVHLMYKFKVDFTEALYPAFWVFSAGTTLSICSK
UniProt O95573: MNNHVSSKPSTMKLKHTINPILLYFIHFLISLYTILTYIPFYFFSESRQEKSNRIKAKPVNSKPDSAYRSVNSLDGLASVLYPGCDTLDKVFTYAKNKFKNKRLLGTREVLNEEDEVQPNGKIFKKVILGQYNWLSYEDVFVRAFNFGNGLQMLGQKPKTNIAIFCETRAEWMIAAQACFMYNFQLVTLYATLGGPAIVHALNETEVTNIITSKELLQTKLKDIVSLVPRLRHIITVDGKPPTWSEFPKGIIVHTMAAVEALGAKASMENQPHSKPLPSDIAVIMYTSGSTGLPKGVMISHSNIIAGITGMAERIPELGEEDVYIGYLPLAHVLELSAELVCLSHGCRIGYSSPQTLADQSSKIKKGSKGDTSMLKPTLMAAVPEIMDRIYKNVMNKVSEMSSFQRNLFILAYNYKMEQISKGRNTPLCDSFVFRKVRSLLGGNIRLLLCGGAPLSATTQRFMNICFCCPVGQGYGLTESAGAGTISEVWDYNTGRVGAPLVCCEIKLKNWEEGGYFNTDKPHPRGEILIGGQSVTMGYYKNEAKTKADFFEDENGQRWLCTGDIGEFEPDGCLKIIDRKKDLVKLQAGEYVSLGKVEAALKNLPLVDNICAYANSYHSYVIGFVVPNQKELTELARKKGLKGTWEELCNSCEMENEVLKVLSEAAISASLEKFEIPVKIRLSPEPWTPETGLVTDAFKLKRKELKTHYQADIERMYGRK
UniProt Q14258: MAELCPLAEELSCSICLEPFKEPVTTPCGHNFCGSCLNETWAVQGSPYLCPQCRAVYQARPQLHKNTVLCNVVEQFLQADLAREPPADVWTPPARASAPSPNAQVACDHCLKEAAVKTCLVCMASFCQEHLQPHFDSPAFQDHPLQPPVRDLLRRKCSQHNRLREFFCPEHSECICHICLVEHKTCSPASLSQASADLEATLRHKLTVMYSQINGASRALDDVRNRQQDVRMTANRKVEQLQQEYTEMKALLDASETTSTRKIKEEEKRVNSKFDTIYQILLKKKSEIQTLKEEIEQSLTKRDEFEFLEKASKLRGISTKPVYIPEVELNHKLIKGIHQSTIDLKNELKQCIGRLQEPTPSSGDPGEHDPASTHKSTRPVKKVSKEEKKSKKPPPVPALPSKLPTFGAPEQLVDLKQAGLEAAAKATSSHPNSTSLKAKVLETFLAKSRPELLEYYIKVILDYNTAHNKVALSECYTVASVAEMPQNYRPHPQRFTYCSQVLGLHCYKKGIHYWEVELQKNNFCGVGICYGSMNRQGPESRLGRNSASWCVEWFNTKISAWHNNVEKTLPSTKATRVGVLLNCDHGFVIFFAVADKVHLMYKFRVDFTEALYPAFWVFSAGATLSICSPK
UniProt Q9CZW4: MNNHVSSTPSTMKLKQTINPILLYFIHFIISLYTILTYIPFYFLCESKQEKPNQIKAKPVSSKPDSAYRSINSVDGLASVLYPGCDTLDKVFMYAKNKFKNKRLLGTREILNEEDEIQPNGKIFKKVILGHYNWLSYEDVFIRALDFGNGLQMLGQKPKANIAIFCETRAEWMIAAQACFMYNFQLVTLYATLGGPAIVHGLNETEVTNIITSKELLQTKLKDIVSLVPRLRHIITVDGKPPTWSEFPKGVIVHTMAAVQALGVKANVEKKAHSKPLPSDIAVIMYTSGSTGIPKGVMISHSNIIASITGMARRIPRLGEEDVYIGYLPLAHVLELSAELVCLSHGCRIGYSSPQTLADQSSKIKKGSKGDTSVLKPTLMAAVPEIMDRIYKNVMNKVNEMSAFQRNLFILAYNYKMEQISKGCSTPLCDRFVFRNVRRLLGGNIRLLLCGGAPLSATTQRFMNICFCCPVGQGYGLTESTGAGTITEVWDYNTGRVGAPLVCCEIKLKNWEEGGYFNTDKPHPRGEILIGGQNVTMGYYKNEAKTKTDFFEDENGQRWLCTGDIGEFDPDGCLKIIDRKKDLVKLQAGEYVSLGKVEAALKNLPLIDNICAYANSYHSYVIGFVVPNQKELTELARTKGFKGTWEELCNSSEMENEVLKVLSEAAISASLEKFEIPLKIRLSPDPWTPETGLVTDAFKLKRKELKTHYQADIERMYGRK

Columns and labels:
[1] = target: ANKRD1 (ankyrin repeat domain 1), endogenous in HK-2 cells (human (endogenous in HK-2)) (UniProt Q15327); test: co-IP; endogenous proteins; lysates of HK-2 cells stimulated with 500 µM H2O2 or H/R; IP with ANKRD1 or ACSL3 antibody, control IgG; immunoblot
[2] = target: ANKRD1 (ankyrin repeat domain 1), endogenous in HK-2 cells (human (endogenous in HK-2)) (UniProt Q15327); test: proximity ligation; HK-2 cells, untreated and H2O2-treated
[3] = target: ANKRD1, endogenous in mouse kidney (mouse (endogenous in kidney)) (UniProt Q9CR42); test: co-IP; endogenous proteins; I/R-treated mouse renal tissue lysates; IP with ANKRD1 or ACSL3 antibody, control IgG; immunoblot
[4] = target: TRIM25, endogenous in mouse kidney (mouse (endogenous in kidney)) (UniProt Q61510); test: co-IP; endogenous proteins; mouse kidneys of the sham and the I/R group; ANKRD1 and ACSL3 bound to the same quantity of TRIM25
[5] = target: ACSL3 (acyl-coenzyme A synthetase long-chain family member 3), endogenous in HK-2 cells (human (endogenous in HK-2)) (UniProt O95573); test: co-IP; endogenous proteins; lysates of HK-2 cells stimulated with 500 µM H2O2 or H/R; IP with ANKRD1 or ACSL3 antibody, control IgG; immunoblot
[6] = target: TRIM25 (tripartite motif containing 25), endogenous in HK-2 cells (human (endogenous in HK-2)) (UniProt Q14258); test: proximity ligation; HK-2 cells, untreated and H2O2-treated
[7] = target: ACSL3, endogenous in mouse kidney (mouse (endogenous in kidney)) (UniProt Q9CZW4); test: co-IP; endogenous proteins; I/R-treated mouse renal tissue lysates; IP with ANKRD1 or ACSL3 antibody, control IgG; immunoblot
[8] = target: Myc-tagged TRIM25 (tripartite motif containing 25), exogenous (UniProt Q14258); test: co-IP; exogenous TRIM25 with ANKRD1 or ACSL3 in HK-2 and HEK 293T cells
[9] = target: FLAG-tagged ANKRD1 (ankyrin repeat domain 1), wild type (human) (UniProt Q15327); test: co-IP; FLAG-ANKRD1 and His-ACSL3 plasmids co-transfected into HK-2 and HEK 293T cells

With “ACSL3 (acyl-coenzyme A synthetase long-chain family member 3), endogenous in HK-2 cells (from UniProt O95573 1-720)” the binding [1] was “binds” and the binding [2] was “binds”.

With “ACSL3, endogenous in mouse kidney (from UniProt Q9CZW4 1-720)” the binding [3] was “binds” and the binding [4] was “binds”.

For “ANKRD1 (ankyrin repeat domain 1), endogenous in HK-2 cells (from UniProt Q15327 1-319)”, the binding [5] was “binds” and the binding [6] was “binds”.

For “ANKRD1, endogenous in mouse kidney (from UniProt Q9CR42 1-319)”, the binding [7] was “binds” and the binding [4] was “binds”.

In the case of “FLAG-tagged ANKRD1 (ankyrin repeat domain 1), wild type (from UniProt Q15327 1-319)”, the binding [8] was “binds”.

In the case of “His-tagged ACSL3 (acyl-coenzyme A synthetase long-chain family member 3) (from UniProt O95573 1-720)”, the binding [9] was “binds”.
